This is an account of results in paper PMC6926464, “Gating control of the cardiac sodium channel Nav1.5 by its β3-subunit involves distinct roles for a transmembrane glutamic acid and the extracellular domain” (The Journal of Biological Chemistry, 2019).

The target in this experiment is Nav1.5 α-subunit with a C-terminal HA tag (human) (UniProt Q14524). Put plainly: co-IP; HEK293F cells co-transfected with Nav1.5 HA and EGFP-tagged β3 or EGFP alone; lysis in 50 mM Tris, 150 mM NaCl, 1% Triton X-100; IP with monoclonal anti-HA and protein G-agarose at 4 °C; bound and flow-through fractions blotted for HA and EGFP.

No constants are given. Whether binding was seen depends on the method and setting. Binding seen in cells or lysates may run through a third protein. Some binding calls cover weakened binding; strength is not graded here. Sequences can lack the tags named with a protein.

B1: full-length WT β3-subunit with C-terminal EGFP tag (natural protein, human, UniProt Q9NY72 23-215, looked up)
chain: FPVCVEVPSETEAVQGNPMKLRCISCMKREEVEATTVVEWFYRPEGGKDFLIYEYRNGHQEVESPFQGRLQWNGSKDLQDVSITVLNVTLNDSGLYTCNVSREFEFEAHRPFVKTTRLIPLRVTEEAGEDFTSVVSEIMMYILLVFLTLWLLIEMIYCYRKVSKAEEAAQENASDYLAIPSENKENSAVPVEE
notes: voltage-gated sodium channel auxiliary β3-subunit, full-length; glycosylated (multiple bands on SDS-PAGE); also called WT-β3-EGFP; FL β3-EGFP; source: HEK293F, transfected (pcDNA3 WT-β3-EGFP), in lysate; not shown: EGFP, C-terminal, kept
B1: the binding entry was “binds”.
